In US10858367B2, “Compounds” (GLAXOSMITHKLINE INTELLECTUAL PROPERTY DEVELOPMENT LIMITED, priority 2017, dated 2020):
Where a name gives a salt, the structure may show the parent alone. Some entries share one result that the patent states for a list of compounds.

Protein sequences, listed by entry. Tags and fused reporters are not part of them. Chains listed by the source or under a name are the forms on record and can include a tag or linker.
UniProt Q5S007, with tags, fused parts or gaps R50H: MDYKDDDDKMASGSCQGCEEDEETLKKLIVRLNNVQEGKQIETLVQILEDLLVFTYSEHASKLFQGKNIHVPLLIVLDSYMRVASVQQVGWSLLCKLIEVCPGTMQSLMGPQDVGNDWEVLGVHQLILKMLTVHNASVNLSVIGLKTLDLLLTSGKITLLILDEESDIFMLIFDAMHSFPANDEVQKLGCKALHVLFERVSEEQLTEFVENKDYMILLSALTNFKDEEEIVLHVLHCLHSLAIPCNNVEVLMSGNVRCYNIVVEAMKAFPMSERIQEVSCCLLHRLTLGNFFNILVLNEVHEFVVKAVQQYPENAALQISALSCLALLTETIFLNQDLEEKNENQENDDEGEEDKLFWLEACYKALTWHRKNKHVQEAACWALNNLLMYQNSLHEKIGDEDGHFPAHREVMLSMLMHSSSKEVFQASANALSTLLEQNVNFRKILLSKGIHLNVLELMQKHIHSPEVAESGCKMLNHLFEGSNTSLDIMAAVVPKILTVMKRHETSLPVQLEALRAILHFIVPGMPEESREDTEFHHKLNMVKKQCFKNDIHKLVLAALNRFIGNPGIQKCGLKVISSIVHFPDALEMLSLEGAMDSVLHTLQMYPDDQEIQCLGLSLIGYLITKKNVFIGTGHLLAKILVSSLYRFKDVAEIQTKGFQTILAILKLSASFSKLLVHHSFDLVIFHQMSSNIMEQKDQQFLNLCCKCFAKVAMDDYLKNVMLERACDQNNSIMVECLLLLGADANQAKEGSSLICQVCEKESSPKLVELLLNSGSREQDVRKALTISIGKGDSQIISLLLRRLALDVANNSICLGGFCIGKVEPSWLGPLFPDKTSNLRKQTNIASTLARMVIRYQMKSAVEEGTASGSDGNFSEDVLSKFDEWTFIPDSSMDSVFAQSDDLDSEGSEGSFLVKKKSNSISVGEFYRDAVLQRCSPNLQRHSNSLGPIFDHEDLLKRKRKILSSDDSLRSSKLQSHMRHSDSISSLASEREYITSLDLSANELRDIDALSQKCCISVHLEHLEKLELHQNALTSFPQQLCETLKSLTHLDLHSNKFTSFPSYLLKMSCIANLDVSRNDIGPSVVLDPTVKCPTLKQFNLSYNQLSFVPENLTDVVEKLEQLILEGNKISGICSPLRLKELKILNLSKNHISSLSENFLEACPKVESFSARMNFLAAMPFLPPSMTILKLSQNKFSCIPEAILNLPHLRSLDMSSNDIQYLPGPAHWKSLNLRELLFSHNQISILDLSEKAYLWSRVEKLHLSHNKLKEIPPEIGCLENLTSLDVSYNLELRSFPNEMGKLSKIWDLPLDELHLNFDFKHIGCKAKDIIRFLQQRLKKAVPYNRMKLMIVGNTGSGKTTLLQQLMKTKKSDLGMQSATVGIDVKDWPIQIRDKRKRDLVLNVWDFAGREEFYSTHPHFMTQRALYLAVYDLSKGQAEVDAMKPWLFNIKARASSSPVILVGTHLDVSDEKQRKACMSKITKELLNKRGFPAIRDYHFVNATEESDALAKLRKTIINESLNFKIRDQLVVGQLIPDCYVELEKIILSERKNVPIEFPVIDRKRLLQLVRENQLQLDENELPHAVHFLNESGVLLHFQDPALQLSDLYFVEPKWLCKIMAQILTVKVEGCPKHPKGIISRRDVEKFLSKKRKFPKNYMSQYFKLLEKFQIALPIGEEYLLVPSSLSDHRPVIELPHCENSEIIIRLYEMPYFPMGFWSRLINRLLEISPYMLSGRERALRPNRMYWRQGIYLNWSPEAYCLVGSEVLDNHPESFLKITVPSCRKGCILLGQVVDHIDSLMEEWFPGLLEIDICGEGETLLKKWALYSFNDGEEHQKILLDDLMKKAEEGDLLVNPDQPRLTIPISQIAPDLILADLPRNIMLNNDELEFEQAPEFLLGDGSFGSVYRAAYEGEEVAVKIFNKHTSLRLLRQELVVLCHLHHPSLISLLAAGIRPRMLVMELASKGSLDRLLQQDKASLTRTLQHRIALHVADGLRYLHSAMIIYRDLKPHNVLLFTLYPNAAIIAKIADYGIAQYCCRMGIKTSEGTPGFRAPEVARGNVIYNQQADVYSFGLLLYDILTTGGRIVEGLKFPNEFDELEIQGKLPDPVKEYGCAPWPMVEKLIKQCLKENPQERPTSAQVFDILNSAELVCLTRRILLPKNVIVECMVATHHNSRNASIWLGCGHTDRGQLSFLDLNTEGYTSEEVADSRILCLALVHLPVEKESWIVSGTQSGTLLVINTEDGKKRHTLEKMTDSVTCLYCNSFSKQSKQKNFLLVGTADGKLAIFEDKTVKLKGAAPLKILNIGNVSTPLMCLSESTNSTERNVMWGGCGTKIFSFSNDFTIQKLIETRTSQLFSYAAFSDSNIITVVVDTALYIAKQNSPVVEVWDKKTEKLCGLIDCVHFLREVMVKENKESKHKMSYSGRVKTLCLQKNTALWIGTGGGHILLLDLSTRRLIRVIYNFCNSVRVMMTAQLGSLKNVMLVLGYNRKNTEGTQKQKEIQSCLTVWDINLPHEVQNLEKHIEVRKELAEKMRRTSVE

Biological target: T1, full length G2019 human LRRK2 (Homo sapiens, UniProt Q5S007, R50H)
T1 construct: made in house; host or cells: HEK293 6E cells transduced with BacMam virus (virus generated in Sf9 cells)
Assay: Full length G2019 human LRRK2 Inhibition Mass Spectrometry assay
Type: biochemical
Details: 25 nM LRRK2 enzyme, 25 uM LRRKtide, 2 mM ATP; RapidFire mass spectrometry
Description: a. Full Length G2019 Human LRRK2 Inhibition Mass Spectrometry Assay
This assay for Leucine Rich Repeat Kinase 2 (LRRK2) inhibition is based on the direct measurement of the peptide ‘LRRKtide’ (LRRKtide: RLGRDKYKT*LRQIRQ and “*” refers to the site of phosphorylation.) and phosphorylated ‘LRRKtide’ using a high throughput RapidFire mass spectrometry assay. Inhibitors are compounds that reduce the conversion of LRRKtide to phospho-LRRKtide.
Human G2019 LRRK2 Plasmid Preparation
Primers used for PCR cloning: • pHTBV-F:SEQ ID No: 1 • LRRK2 wt-F1:SEQ ID No: 2 • LRRK2 wt-R1: SEQ ID No: 3 • LRRK2 wt-F2: SEQ ID No: 4 • LRRK2 wt-R2: SEQ ID No: 5 • LRRK2 wt-F3:SEQ ID No: 6 • pHTBV-R: SEQ ID No: 7 pHTBV1-N-Flag-hu LRRK2 was generated by PCR amplifying the full length LRRK2 sequence with N terminal Flag tag from pcDNA3.1(+)_Human_LRRK2 (NCBI Reference Sequence: NP_940980.3) with the primers described above, and cloned into pHTBV1mcs3 vector between BamHI and KpnI sites.
The G2019 full length Flag-LRRK2 coding sequence is SEQ ID No: 8.
The translated amino acid sequence for human G2019 full length N terminal flag tagged LRRK2 protein is SEQ ID No: 9.
Protein Expression & Purification a) Expression of Flag Tagged Full Length G2019 Human LRRK2
HEK293 6E cells were incubated in a 37° C. incubator with a humidified atmosphere of 5% CO2 on an orbital shaker rotating at 110 rpm. On the day of transduction, the cell viability was higher than 98% and the cell density was in the range of 1×10^6˜1.5×10^6 cells/ml. HEK293 6E cells were centrifuged at 1,000 rpm for 10 min, and then the cells were resuspended in fresh Freestyle 293 expression medium (Invitrogen: 12338) with 0.1% F-68(Invitrogen: 24040-032) but without antibiotics (G418) at density of 1×10^6 cells/ml. BacMam virus with Flag-hu LRRK2 (genotypically normal) gene was centrifuged at 40,000 g for 2 hours, then resuspended in fresh Freestyle 293 expression medium. The resuspended virus was added into the cells in at MOI of 10. The cells were incubated in a 37° C. incubator with a humidified atmosphere of 5% CO2 in air on an orbital shaker rotating at 110 rpm. Cultures were harvested at approximately 48 hours post-transduction by centrifugation at 4,000 rpm for 20 min and pellets were frozen for purification. […]
b) Purification of Flag Tagged Full Length G2019 Human LRRK2
The suspended cells were lysed by sonication on ice for 30 min (2 secs on/4 sec off, 20% amplitude), and centrifuged at 10,000 rpm for 30 minutes at 4° C. The supernatant was incubated with 1 mL per litre of cell culture of anti-Flag magnetic beads (Sigma-Aldrich: M8823) at 4° C. for 3 hours, then the beads were washed by 5 mL (5 column volume) binding buffer (50 mM Tris pH7.5@ 4 C, 500 mM NaCl, 0.5 mM EDTA, 0.1% TritonX-100, 10% glycerol, freshly add 2 mM DTT) for three times. The Flag tagged LRRK2 proteins were eluted by Elution buffer (50 mM Tris pH7.5@ 4 C, 500 mM NaCl, 0.5 mM EDTA, 0.1% TritonX-100, 10% glycerol, freshly add 2 mM DTT, 250 ug/ml Flag peptide (Sigma-Aldrich:F3290)) at 4° C. for 2 hours. Flag peptide was removed by Zeba Spin Desalting Columns, 7K MWCO (Thermo-Fisher: 89893) and the buffer of eluted LRRK2 proteins was exchanged into Storage Buffer (50 mM Tris pH7.5@4 C, 150 mM NaCl, 0.5 mM EDTA, 0.02% Triton X-100, 2 mM DTT and 50% Glycerol) using Amicon Ultra Centrifugal Filter Units (100 kD) (Merck: UFC910096). Fractions containing LRRK2 proteins were pooled, aliquoted and stored at −80° C. Protein concentration was determined by Bradford protein assay, and protein purity was analyzed by NuPAG Novex 4-12% Bis-Tris Protein Gels (Invitrogen: NP0322BOX).
Assay Protocol • 1) A 10 mM test compound was dissolved in 100% DMSO and serially diluted 1 in 4. 100 nL of this dilution series was then added to a 384 well, v bottom polypropylene plate, excluding columns 6 and 18. 100 nL of DMSO was added to columns 6 and 18 as controls wells. […]

Structure (SMILES)	pIC50 in the full length G2019 human LRRK2 Inhibition Mass Spectrometry assay
Cc1nc(N2CC3CCC(C2)O3)cc(-n2ncc3cc(C)c(C4CCNCC4)cc32)n1.O=C(O)C(F)(F)F [Example E63, 3-(2-methyl-6-(5-methyl-6-(piperidin-4-yl)-1H-indazol-1-yl)pyrimidin-4-yl)-8-oxa-3-azabicyclo[3.2.1]octane 2,2,2-trifluoroacetate]	≥ 6.0
COc1nc(N2CC3CC2CO3)cc(-n2ncc3cc(C)c(C4CCN(C5COC5)CC4O)cc32)n1 (single isomer, unassigned) [Example E132]	≥ 6.0
Cc1nc(N2C[C@H]3C[C@@H]2CO3)cc(-n2ncc3cc(Cl)c(C4CCN(C5COC5)CC4)cc32)n1 [Example E25, (1R,4R)-5-(6-(5-chloro-6-(1-(oxetan-3-yl)piperidin-4-yl)-1H-indazol-1-yl)-2-methylpyrimidin-4-yl)-2-oxa-5-azabicyclo[2.2.1]heptane]	≥ 6.0
Cc1nc(N2CC3CC(C2)O3)cc(-n2ncc3cc(C)c(C4CCNCC4)cc32)n1.O=C(O)C(F)(F)F [Example E61, 3-(2-methyl-6-(5-methyl-6-(piperidin-4-yl)-1H-indazol-1-yl)pyrimidin-4-yl)-6-oxa-3-azabicyclo[3.1.1]heptane 2,2,2-trifluoroacetate]	≥ 6.0
Cc1nc(N2C[C@@H]3C[C@H]2CO3)cc(-n2ncc3cc(Cl)c(C4CCN(C5COC5)CC4)cc32)n1 [Example E26, (1S,4S)-5-(6-(5-chloro-6-(1-(oxetan-3-yl)piperidin-4-yl)-1H-indazol-1-yl)-2-methylpyrimidin-4-yl)-2-oxa-5-azabicyclo[2.2.1]heptane]	≥ 6.0
COc1nc(N2CC3CC2CO3)cc(-n2ncc3cc(C)c([C@H]4CC[C@@](C)(O)CC4)cc32)n1 (single isomer, unassigned) [Example E11]	≥ 6.0
COc1nc(N2C[C@H]3C[C@@H]2CO3)cc(-n2ncc3cc(Cl)c(C4CCN(C5COC5)CC4)cc32)n1 [Example E5, (1R,4R)-5-(6-(5-chloro-6-(1-(oxetan-3-yl)piperidin-4-yl)-1H-indazol-1-yl)-2-methoxypyrimidin-4-yl)-2-oxa-5-azabicyclo[2.2.1]heptane]	≥ 6.0
Cc1nc(N2CC3CC2CC3C(=O)O)cc(-n2ncc3cc(C)c(C4CCOCC4)cc32)n1 (single isomer, unassigned) [Example E82, 2-{2-Methyl-6-[5-methyl-6-(tetrahydro-pyran-4-yl)-indazol-1-yl]-pyrimidin-4-yl}-2-aza-bicyclo[2.2.1]heptane-5-carboxylic Acid]	≥ 6.0
COc1nc(N2CC3CCC(C2)O3)cc(-n2ncc3cc(C)c(C4CCN(C5COC5)CC4)cc32)n1 [Example E41, 3-(2-Methoxy-6-(5-methyl-6-(1-(oxetan-3-yl)piperidin-4-yl)-1H-indazol-1-yl)pyrimidin-4-yl)-8-oxa-3-azabicyclo[3.2.1]octane]	≥ 6.0
Cc1nc(N2C[C@@H]3C[C@H]2CN3C2COC2)cc(-n2ncc3cc(C)c([C@H]4CC[C@](C)(O)CC4)cc32)n1 [Example E32, Trans-1-methyl-4-(5-methyl-1-(2-methyl-6-((1S,4S)-5-(oxetan-3-yl)-2,5-diazabicyclo[2.2.1]heptan-2-yl)pyrimidin-4-yl)-1H-indazol-6-yl)cyclohexanol]	≥ 6.0
COc1nc(N2CC3CC(C2)C3C(=O)O)cc(-n2ncc3cc(C)c(OC(C)C)cc32)n1 (centres unmarked) [Example E81, 3-(6-(6-isopropoxy-5-methyl-1H-indazol-1-yl)-2-methoxypyrimidin-4-yl)-3-azabicyclo[3.1.1]heptane-6-carboxylic Acid]	≥ 6.0
Cc1nc(N2C[C@@H]3C[C@H]2CO3)cc(-n2ncc3cc(C)c(C4CCN(CCC(=O)O)CC4F)cc32)n1 (single isomer, unassigned) [Example E157]	≥ 6.0
Cc1nc(N2C[C@@H]3C[C@H]2CO3)cc(-n2ncc3cc(C)c([C@H]4CC[C@@](C)(O)CC4)cc32)n1 [Example E7, Cis-4-(1-(6-((1S,4S)-2-oxa-5-azabicyclo[2.2.1]heptan-5-yl)-2-methylpyrimidin-4-yl)-5-methyl-1H-indazol-6-yl)-1-methylcyclohexanol]	≥ 6.0
[2H]C1(N2CCC(c3cc4c(cnn4-c4cc(N5C[C@@H]6C[C@H]5CO6)nc(OC)n4)cc3C)CC2)COC1 [Example E57, (1S,4S)-5-(6-(6-(1-(3-deuterooxetan-3-yl)piperidin-4-yl)-5-methyl-1H-indazol-1-yl)-2-methoxypyrimidin-4-yl)-2-oxa-5-azabicyclo[2.2.1]heptane]	≥ 6.0
Cc1nc(N2C[C@H]3C[C@@H]2CO3)cc(-n2ncc3cc(Cl)c(N4CCC(C)(O)CC4)cc32)n1 [Example E34, 1-(1-(6-((1R,4R)-2-oxa-5-azabicyclo[2.2.1]heptan-5-yl)-2-methylpyrimidin-4-yl)-5-chloro-1H-indazol-6-yl)-4-methylpiperidin-4-ol]	≥ 6.0
Cc1nc(N2CC3CC2CO3)cc(-n2ncc3cc(C)c(C4CCN([C@H]5CCOC5)CC4O)cc32)n1 (single isomer, unassigned) [Example E137]	≥ 6.0
Cc1nc(N2C[C@@H]3C[C@H]2CO3)cc(-n2ncc3cc(C)c(C4CCN(C5CCOC5)CC4F)cc32)n1 (single isomer, unassigned) [Example E151]	≥ 6.0
Cc1nc(N2C[C@@H]3C[C@H]2CO3)cc(-n2ncc3cc(C)c([C@H]4CC[C@](C)(O)CC4)cc32)n1 [Example E8, Trans-4-(1-(6-((1S,4S)-2-oxa-5-azabicyclo[2.2.1]heptan-5-yl)-2-methylpyrimidin-4-yl)-5-methyl-1H-indazol-6-yl)-1-methylcyclohexanol]	≥ 6.0
Cc1nc(N2CC3CC2CO3)cc(-n2ncc3cc(C)c([C@H]4CC[C@](C)(O)CC4)cc32)n1 (single isomer, unassigned) [Example E10]	≥ 6.0

Same assay, conditions: 25 nM LRRK2 enzyme, 25 uM LRRKtide, 2 mM ATP; RapidFire mass spectrometry; TFA Salt

Structure (SMILES)	pIC50 in the full length G2019 human LRRK2 Inhibition Mass Spectrometry assay
Cc1nc(N2CC3OCC2C3O)cc(-n2ncc3cc(C)c(C4CCN([C@H]5CCOC5)CC4)cc32)n1 (single isomer, unassigned) [Example E177, TFA Salt]	≥ 6.0
